Results as given in PubChem BioAssay AID1347423 (Functional Genomics Laboratory (NCATS/FGL), 2020).
The campaign covered roughly 52,000 sequences. About 210 (0.4%) were called active.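 How the source made its calls: active means gene whose silencing raises cell survival under the drug, median off-target-corrected z-score across its silencing RNAs 2 or more; inactive means the rest.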 The list shows a part of the results.

Test: Resistance to Poly (ADP-Ribose) Polymerase inhibitor: Gene Identification via Genome-wide siRNA Screen
Conditions: mouse BRCA2 R2336H ES cells, olaparib, CellTiter-Glo viability; hits give high values
In short: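 Genome-wide siRNA screen (3 siRNAs/gene, 20 nM) in mouse ES cells carrying hypomorphic BRCA2 R2336H; olaparib 500 nM added 48 h post-transfection, CellTiter-Glo viability 72 h later. Normalized to plate-median negative control; MAD z-scores, gene median, seed-adjusted.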

Sequence	z-score
CGUACCUAAUCUGCCUAUCTT against Zic3	inactive: -0.299
CGUACCUUUUUUAUCCUAATT against 6030445D17Rik	inactive: 1.46
GGCUCAAAGCCAAUCUGAATT against Recql4	inactive: 1.31
GGGUCAUGUAGGGAUAAAATT against D430026P16Rik	inactive: -0.63
GGUGUAUCAGAGGCAGAUUTT against LOC278676	inactive: -2.23
GGUAAAUGGUUUAACUACGTT against B930062P21Rik	inactive: -0.384
GGUCAUUUCUGGCAAGGUUTT against Adpn	inactive: 0.131
GGGAGAAGAGAUUUUCUUGTT against 4932416N17Rik	inactive: 1.04
CCUAGUAUAUCUGUGUUGUTT against Prkwnk1	inactive: -0.586
GCCACUCCUAUGAGUGUUATT against Pctk3	inactive: 1.16
CCAUUGAAGCCGAAUCAGATT against Slfn3	inactive: -0.393
GGAGGGAAGGCUGUGAAUATT against Syt7	inactive: -1.69
GGUUUGAUGUUAGACAACGTT against Trim34	inactive: -0.72
GCACAAAUACACCAAUCUCTT against Eif2b5	inactive: 1.01
GCUAUUGUUAUAGUAUCUGTT against Olfr688	inactive: 0.696
GCACUUAGACUAUUCCAGGTT against Tph2	inactive: -0.375
GGUGGAACUGACACAAGAATT against Gk2	inactive: -0.555
CCAUUCAGUCGAUUACAUUTT against Chd9	inactive: 0.519
CCAAUGCACAGGUCAUCACTT against Lbx1h	inactive: -1.54
GGCUGCUGGGAAAAUGUGGTT against 1700001F22Rik	inactive: -0.485
GGUUGUGCAGGGAAACUUATT against Ap3m2	inactive: -1.9
GGAAGAAUUUAAGAAGUUCTT against Grp58	inactive: 0.847

Sequence	z-score
CCAUUCCCGCAUCCAUGUGTT against 4930488P06Rik	inactive: -1.65
GGAUUUACUGGGAAAGGUUTT against V1rg12	inactive: -2.57
CGUAUUCCACUGCACUUUGTT against 2010321J07Rik	inactive: -0.428
GCUCUGAUGGAACGCAUGATT against Sesn2	inactive: 0.0971
GGUUGUGACCGCCAUUUCUTT against 2610017G09Rik	inactive: 0.925
GGAGGAAGUUACAGAUGUGTT against Nog	inactive: -1.31
GGAAGAGAAAGAGGUCAGATT against Aptx	inactive: 0.319
GGAACCACACAUGUGUUAATT against Grik2	inactive: 0.0594
CCAAGUCUUGGAAAAUAACTT against 1700049M11Rik	inactive: -0.969
GGAAGUGUAUAAUUUCCUGTT against Aco2	inactive: 1.71
CCAUGUUCAUCUUCUUGGGTT against Olfr76	inactive: -1.14
GGAAGUAAUUCACAACCAGTT against Pfdn1	inactive: 1.14
CCUUCGAGACCUGUUGUCUTT against 4832420M10	inactive: 1.63
CGUCAAUCACACAGAUAUUTT against Cd28	inactive: -2.64
GGUUCAAGCAGAACAAGAATT against 2810453I06Rik	inactive: 1.07
GCUCCGAUUAACAAAGCCGTT against 2610034N24Rik	inactive: -1.43
GCAGUGGAUGUAUUGUAAATT against 0610009B22Rik	inactive: -0.916
CCACCAUUUACUGAGUUUATT against Scn2b	inactive: 0.795
CGGUAUCAUAGCUUAGCACTT against Rab5a	inactive: -0.0583
CGAUUAGAGGCACGUCAGUTT against Neurod1	inactive: -1.82
GGCUAAACUCACAACACUCTT against AI451557	inactive: -0.178
CGAACUGUUGAGAGACAAGTT against Trpv4	inactive: 0.293

An excerpt of these results, bar-delimited:
Sequence | z-score
CCAUGUUCAUCUUCUUGGGTT against Olfr76 | inactive: -1.14
GGAAGUAAUUCACAACCAGTT against Pfdn1 | inactive: 1.14
CCUUCGAGACCUGUUGUCUTT against 4832420M10 | inactive: 1.63

Two successive records from above, for reference:
Sequence	z-score
GGUUGUGACCGCCAUUUCUTT against 2610017G09Rik	inactive: 0.925
GGAGGAAGUUACAGAUGUGTT against Nog	inactive: -1.31

Further results.

Sequence	z-score
GGAUGAUAAAGACAAAGUATT against Ppm1g	inactive: -0.0666
GGCAGUGUUGACCAACAUGTT against BC021891	inactive: -0.647
GGUUUUCUUCAACAUCCUGTT against Bcs1l	inactive: 1.57
GGGACAUACAUAUCCUCCUTT against 1300013D05Rik	inactive: 1.31
GGUCACUCGGUUCACAAAATT against Bid	inactive: -2.03
AGCCUUCUUACCACAAGUUTT against Nalp-epsilon	inactive: -0.106
GGAGGUGGUUCACUAAAAATT against MGC58426	inactive: 1.39
GGAUUUGGCUAUAUCAACATT against Rfc2	inactive: -3.02
CGUGGGUAGGCUUAGAGAUTT against Brp16	inactive: 1.55
GGAGGAGACUAAAGAAAAUTT against Myf6	inactive: -1.24
GGAGUUUGUAGCUGACAUCTT against BC057552	inactive: -1.16
GCUAUUAAGUUUACCCUAGTT against A730089K16Rik	inactive: -0.347
CCAAUAUCACAUUUGCUUUTT against Crb1	inactive: -0.206
CGGCAUGAGCAGUUUAUAUTT against Col19a1	inactive: -0.383
GGAGACAAUUUAAAAGCAGTT against Cklfsf2b	inactive: -0.325
CCUGGAAUAGACUGAAUUATT against C530043G21Rik	inactive: -1.31
GCAAGAUUUAUCUUGUACCTT against Tex2	inactive: 0.271
GGGUGGAAGCUUUGAGAGATT against Bag2	inactive: -1.2
GGACUUUGUACGUUUCCUUTT against H1f0	inactive: -1.47
UUGUUCAAGAGCUAGAGAUTT against BC023754	inactive: -0.0186
GCUCUAUGGGAGAUUUGGATT against Itga2b	inactive: -0.203
GGAACUUCCUGAGGAUAAGTT against 1700009P13Rik	inactive: 0.227
